Source: PMC11480334

Protein sequences, listed by entry. Tags and fused reporters are not part of them. Lines headed by an entry give the natural chain unless they say otherwise; changes in a name come on top.
UniProt P46461: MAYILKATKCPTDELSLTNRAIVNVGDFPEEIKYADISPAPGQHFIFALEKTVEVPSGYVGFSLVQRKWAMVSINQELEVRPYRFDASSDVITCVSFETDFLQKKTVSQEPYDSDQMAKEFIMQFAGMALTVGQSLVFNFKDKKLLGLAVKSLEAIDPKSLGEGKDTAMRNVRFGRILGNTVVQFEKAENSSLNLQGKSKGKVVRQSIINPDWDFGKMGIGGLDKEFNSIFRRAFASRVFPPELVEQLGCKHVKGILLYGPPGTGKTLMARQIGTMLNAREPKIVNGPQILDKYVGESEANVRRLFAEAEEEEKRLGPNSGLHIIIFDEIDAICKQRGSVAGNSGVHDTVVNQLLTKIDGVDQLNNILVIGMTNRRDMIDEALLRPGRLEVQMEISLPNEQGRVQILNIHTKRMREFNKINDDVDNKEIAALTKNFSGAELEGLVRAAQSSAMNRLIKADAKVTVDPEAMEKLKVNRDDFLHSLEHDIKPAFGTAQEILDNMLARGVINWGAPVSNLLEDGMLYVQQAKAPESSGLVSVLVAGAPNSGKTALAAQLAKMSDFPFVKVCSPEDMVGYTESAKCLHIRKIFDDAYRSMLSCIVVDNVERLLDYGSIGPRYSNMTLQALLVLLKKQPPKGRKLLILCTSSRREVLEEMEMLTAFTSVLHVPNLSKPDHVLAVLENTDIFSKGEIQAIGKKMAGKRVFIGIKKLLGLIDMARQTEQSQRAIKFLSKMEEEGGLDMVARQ
UniProt P06754: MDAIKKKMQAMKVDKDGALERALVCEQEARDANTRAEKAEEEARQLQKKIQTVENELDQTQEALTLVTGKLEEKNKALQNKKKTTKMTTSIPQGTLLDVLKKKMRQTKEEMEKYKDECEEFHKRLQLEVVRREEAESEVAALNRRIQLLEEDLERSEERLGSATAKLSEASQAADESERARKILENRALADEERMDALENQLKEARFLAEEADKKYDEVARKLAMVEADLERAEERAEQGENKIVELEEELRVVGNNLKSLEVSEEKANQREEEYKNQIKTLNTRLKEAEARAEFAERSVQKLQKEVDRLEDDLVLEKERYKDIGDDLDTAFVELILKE
UniProt Q9VAC1: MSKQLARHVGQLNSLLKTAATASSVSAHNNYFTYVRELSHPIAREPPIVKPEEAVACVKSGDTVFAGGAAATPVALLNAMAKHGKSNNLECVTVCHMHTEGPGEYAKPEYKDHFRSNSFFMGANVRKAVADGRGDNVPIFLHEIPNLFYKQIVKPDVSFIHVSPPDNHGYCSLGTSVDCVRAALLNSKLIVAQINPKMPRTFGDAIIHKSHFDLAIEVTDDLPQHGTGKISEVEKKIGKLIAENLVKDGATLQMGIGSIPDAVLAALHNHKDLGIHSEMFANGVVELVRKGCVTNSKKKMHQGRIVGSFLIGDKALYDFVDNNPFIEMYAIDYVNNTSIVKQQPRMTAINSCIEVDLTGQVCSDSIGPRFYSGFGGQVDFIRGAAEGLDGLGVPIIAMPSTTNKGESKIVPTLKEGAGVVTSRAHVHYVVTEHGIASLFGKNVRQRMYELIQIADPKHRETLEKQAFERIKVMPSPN
UniProt P02828: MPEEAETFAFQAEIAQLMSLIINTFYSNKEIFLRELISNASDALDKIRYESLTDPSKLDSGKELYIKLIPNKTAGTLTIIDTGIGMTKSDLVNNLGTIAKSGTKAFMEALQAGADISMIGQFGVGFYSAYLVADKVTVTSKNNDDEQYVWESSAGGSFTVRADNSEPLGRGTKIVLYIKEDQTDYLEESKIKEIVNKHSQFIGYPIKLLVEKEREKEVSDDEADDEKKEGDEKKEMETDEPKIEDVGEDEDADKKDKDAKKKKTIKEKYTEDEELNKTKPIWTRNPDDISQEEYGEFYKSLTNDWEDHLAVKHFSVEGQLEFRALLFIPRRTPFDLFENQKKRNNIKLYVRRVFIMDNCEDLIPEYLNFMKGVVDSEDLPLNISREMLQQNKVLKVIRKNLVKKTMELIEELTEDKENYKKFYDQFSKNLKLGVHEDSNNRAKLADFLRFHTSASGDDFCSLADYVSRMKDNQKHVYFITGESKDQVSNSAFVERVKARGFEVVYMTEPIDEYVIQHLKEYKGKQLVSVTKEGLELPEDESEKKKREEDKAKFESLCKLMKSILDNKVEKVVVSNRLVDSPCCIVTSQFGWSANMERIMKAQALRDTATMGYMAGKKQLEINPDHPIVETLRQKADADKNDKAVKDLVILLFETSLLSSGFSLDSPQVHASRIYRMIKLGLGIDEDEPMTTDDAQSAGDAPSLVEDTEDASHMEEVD

These substances were tested against T1, mCherry-tagged Hdc (histidine decarboxylase), expressed in fly photoreceptor cells (Drosophila) (UniProt Q05733) (assay: affinity purification with mass spectrometry; heads of about 500 flies expressing mCherry-tagged Hdc or mCherry, lysed in 50 mM Tris-HCl pH 7.5, 150 mM NaCl, 1% NP-40; RFP agarose beads (RFP-Trap) 2 h at 4 °C; silver-stained bands cut out for mass spectra).
T1 sequence: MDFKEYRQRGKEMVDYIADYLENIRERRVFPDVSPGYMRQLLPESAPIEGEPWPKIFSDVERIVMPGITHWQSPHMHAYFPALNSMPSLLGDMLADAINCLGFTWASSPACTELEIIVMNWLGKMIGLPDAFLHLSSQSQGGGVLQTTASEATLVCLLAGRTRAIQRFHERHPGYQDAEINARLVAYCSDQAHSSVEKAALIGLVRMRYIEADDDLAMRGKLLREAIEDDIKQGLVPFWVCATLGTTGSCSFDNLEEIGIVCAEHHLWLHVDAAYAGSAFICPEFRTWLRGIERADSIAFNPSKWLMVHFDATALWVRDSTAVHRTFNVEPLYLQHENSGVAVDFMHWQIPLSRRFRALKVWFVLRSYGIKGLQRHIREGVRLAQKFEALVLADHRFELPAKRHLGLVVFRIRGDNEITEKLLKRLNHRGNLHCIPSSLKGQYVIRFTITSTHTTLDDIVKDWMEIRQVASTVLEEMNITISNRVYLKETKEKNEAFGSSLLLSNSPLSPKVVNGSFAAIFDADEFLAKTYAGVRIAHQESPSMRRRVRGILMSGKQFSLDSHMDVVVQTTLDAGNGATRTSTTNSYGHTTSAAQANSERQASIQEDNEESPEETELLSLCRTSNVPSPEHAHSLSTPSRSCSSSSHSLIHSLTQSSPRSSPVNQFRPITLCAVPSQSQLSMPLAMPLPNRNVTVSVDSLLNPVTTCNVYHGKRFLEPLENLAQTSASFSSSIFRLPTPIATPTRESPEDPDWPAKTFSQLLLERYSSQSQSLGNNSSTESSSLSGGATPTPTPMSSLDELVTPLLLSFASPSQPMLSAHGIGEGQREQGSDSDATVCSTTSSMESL

binding, binds:
NSF1 (N-ethylmaleimide-sensitive fusion protein 1), endogenous in fly heads (from UniProt P46461 1-745)
Tm1, endogenous in fly heads (from UniProt P06754 1-339)
CG7920, endogenous in fly heads (from UniProt Q9VAC1)
Hsp83, endogenous in fly heads (from UniProt P02828 1-717)

These are yes or no findings as the source states them, for the method shown. Binding seen in cells or lysates may run through a third protein. A yes stands for co-enrichment or nearness to the bait. Other partners may have been found. Tags and fused reporters may be left off the sequences shown.
